Variants at the background level are over-represented here.
Key:
[1] = test system: biotinyl-Leu-oxazolone; test: self-aminoacylation, catalytic enhancement (BLO) (fold over background); higher = more active; k-Seq, kA / k0A0; sequences stand for … in GGGAAUGGAUCCACAUCUACGAAUUC…UUCACUGCAGACUUGACGAAGCUG
Procedure, shortened: (§1)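 Mutagenized RNA pools (0.43 μM; 21-nt variable region) were treated with 2–1250 μM of each biotinyl-aminoacyl-oxazolone. Conditions were 50 μL HEPES/NaCl/KCl/MgCl2/CaCl2 buffer, 5% acetonitrile, pH 6.9–7.0, room temperature, 90 minutes. Catalytic enhancement, the median kA relative to the uncatalyzed rate, was derived from streptavidin capture, qPCR and Illumina sequencing.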

[2] = test system: biotinyl-Trp-oxazolone; test: self-aminoacylation, catalytic enhancement (BWO) (fold over background); higher = more active; k-Seq, kA / k0A0; sequences stand for … in GGGAAUGGAUCCACAUCUACGAAUUC…UUCACUGCAGACUUGACGAAGCUG
Procedure, shortened: as §1

[3] = test system: biotinyl-Val-oxazolone; test: self-aminoacylation, catalytic enhancement (BVO) (fold over background); higher = more active; k-Seq, kA / k0A0; sequences stand for … in GGGAAUGGAUCCACAUCUACGAAUUC…UUCACUGCAGACUUGACGAAGCUG
Procedure, shortened: as §1

[4] = test system: biotinyl-Met-oxazolone; test: self-aminoacylation, catalytic enhancement (BMO) (fold over background); higher = more active; k-Seq, kA / k0A0; sequences stand for … in GGGAAUGGAUCCACAUCUACGAAUUC…UUCACUGCAGACUUGACGAAGCUG
Procedure, shortened: as §1

[5] = test system: biotinyl-Ile-oxazolone; test: self-aminoacylation, catalytic enhancement (BIO) (fold over background); higher = more active; k-Seq, kA / k0A0; sequences stand for … in GGGAAUGGAUCCACAUCUACGAAUUC…UUCACUGCAGACUUGACGAAGCUG
Procedure, shortened: as §1

[6] = test system: biotinyl-Phe-oxazolone; test: self-aminoacylation, catalytic enhancement (BFO) (fold over background); higher = more active; k-Seq, kA / k0A0; sequences stand for … in GGGAAUGGAUCCACAUCUACGAAUUC…UUCACUGCAGACUUGACGAAGCUG
Procedure, shortened: as §1

Row | Sequence | self-aminoacylation [1] | self-aminoacylation [2] | self-aminoacylation [3] | self-aminoacylation [4] | self-aminoacylation [5] | self-aminoacylation [6]
1 | CUACUUCAAACAAUGGGUCGG [Fam1A.1 aminoacylation ribozyme variant] | 0.878 | 0.513 | 0.729 | 0.793 | 0.828 | 0.587
2 | CUACUUCAAACACUCGAUCUG [Fam1A.1 aminoacylation ribozyme variant] | 0.52 | 0.404 | 0.763 | 0.539 | 0.716 | 0.695
3 | CUACUUCAAACAGGCGGUCUG [Fam1A.1 aminoacylation ribozyme variant] | 0.985 | 0.971 | 1.18 | 1.14 | 1.16 | 0.701
4 | CUACUUCAAACAGUCGGUUUG [Fam1A.1 aminoacylation ribozyme variant] | 0.833 | 0.676 | 0.815 | 0.718 | 0.805 | 0.578
5 | CUACUUCAAACAUUCGGCCUG [Fam1A.1 aminoacylation ribozyme variant] | 1.74 | 0.772 | 1.66 | 1.71 | 1.48 | 1.26
6 | CUACUUCAAACAUUCGGUCAG [Fam1A.1 aminoacylation ribozyme variant] | 0.861 | 0.688 | 0.992 | 0.886 | 0.901 | 0.674
7 | CUACUUCAAACCAUCGGUCUA [Fam1A.1 aminoacylation ribozyme variant] | 0.736 | 0.453 | 0.814 | 0.79 | 0.945 | 1.04
8 | CUACUUCAAACCCUCGGUCUG [Fam1A.1 aminoacylation ribozyme variant] | 0.761 | 1.48 | 0.974 | 1.04 | 1.13 | 0.785
9 | CUACUUCAAACGAACGGUCUG [Fam1A.1 aminoacylation ribozyme variant] | 0.392 | 0.289 | 0.764 | 0.67 | 0.605 | 1.07
10 | CUACUUCAAACGCUCGGUCUG [Fam1A.1 aminoacylation ribozyme variant] | 1.09 | 0.637 | 0.828 | 0.592 | 0.741 | 0.793
11 | CUACUUCAAACGGUCGGUCUG [Fam1A.1 aminoacylation ribozyme variant] | 1.16 | 1.13 | 0.953 | 0.959 | 1.08 | 0.481
12 | CUACUUCAAAGAAACGGUCUG [Fam1A.1 aminoacylation ribozyme variant] | 0.692 | 0.727 | 0.877 | 0.814 | 0.749 | 0.822
13 | CUACUUCAAAGAAUCGCUCUG [Fam1A.1 aminoacylation ribozyme variant] | 0.857 | 0.978 | 0.72 | 0.756 | 0.715 | 0.672
14 | CUACUUCAAAGAAUCGGUAUG [Fam1A.1 aminoacylation ribozyme variant] | 0.923 | 1.28 | 0.753 | 0.68 | 0.793 | 1.93
15 | CUACUUCAAAGAAUCGGUCGG [Fam1A.1 aminoacylation ribozyme variant] | 1.05 | 1.12 | 0.795 | 0.844 | 0.763 | 1.37
16 | CUACUUCAACCAAUCGGCCUG [Fam1A.1 aminoacylation ribozyme variant] | 2.86 | 42.2 | 1.86 | 1.83 | 1.79 | 47.8
17 | CUACUUCAACCAAUGGGUCUG [Fam1A.1 aminoacylation ribozyme variant] | 0.968 | 0.67 | 1.02 | 0.933 | 1.02 | 1.05
18 | CUACUUCAAGCAAUCGAUCUG [Fam1A.1 aminoacylation ribozyme variant] | 0.713 | 0.717 | 0.671 | 0.604 | 0.648 | 1.36
19 | CUACUUCAAGCAAUCGUUCUG [Fam1A.1 aminoacylation ribozyme variant] | 0.691 | 0.797 | 0.768 | 0.701 | 0.77 | 0.921
20 | CUACUUCAAGCAAUUGGUCUG [Fam1A.1 aminoacylation ribozyme variant] | 1.06 | 1.24 | 0.974 | 0.824 | 1.03 | 1.61
21 | CUACUUCAAUCAAUAGGUCUG [Fam1A.1 aminoacylation ribozyme variant] | 0.619 | 0.582 | 0.813 | 0.664 | 0.764 | 0.9
22 | CUACUUCAAUCAAUUGGUCUG [Fam1A.1 aminoacylation ribozyme variant] | 0.625 | 0.748 | 0.744 | 0.664 | 0.821 | 0.84
23 | CUACUUCACACAAUCGGUAUG [Fam1A.1 aminoacylation ribozyme variant] | 0.669 | 0.649 | 0.716 | 0.852 | 0.821 | 0.763
24 | CUACUUCACACAAUCGGUCAG [Fam1A.1 aminoacylation ribozyme variant] | 0.761 | 0.663 | 0.843 | 0.611 | 0.886 | 0.853
25 | CUACUUCACACAAUCGGUUUG [Fam1A.1 aminoacylation ribozyme variant] | 0.655 | 0.717 | 0.858 | 0.708 | 0.814 | 0.655
26 | CUACUUCACAUAAUCGGUCUG [Fam1A.1 aminoacylation ribozyme variant] | 0.812 | 0.721 | 0.969 | 0.795 | 0.963 | 0.899

Row | Sequence | self-aminoacylation [1] | self-aminoacylation [2] | self-aminoacylation [3] | self-aminoacylation [4] | self-aminoacylation [5] | self-aminoacylation [6]
27 | CUACUUCACCCAAUCGGUCUG [Fam1A.1 aminoacylation ribozyme variant] | 0.704 | 0.793 | 0.88 | 0.67 | 0.917 | 0.575
28 | CUACUUCAGACAAUCGGUCGG [Fam1A.1 aminoacylation ribozyme variant] | 1.6 | 1.58 | 1 | 1.41 | 1.2 | 1.04
29 | CUACUUCAGACAAUCGGUCUA [Fam1A.1 aminoacylation ribozyme variant] | 0.814 | 0.597 | 0.708 | 0.685 | 0.84 | 0.848
30 | CUACUUCAUACAAUAGGUCUG [Fam1A.1 aminoacylation ribozyme variant] | 0.723 | 0.434 | 0.904 | 0.695 | 0.836 | 0.866
31 | CUACUUCAUACAAUCGGUCGG [Fam1A.1 aminoacylation ribozyme variant] | 1.03 | 0.701 | 1.01 | 1.04 | 1.03 | 0.968
32 | CUACUUCAUACAAUCUGUCUG [Fam1A.1 aminoacylation ribozyme variant] | 0.566 | 0.424 | 0.682 | 0.64 | 0.668 | 0.66
33 | CUACUUCAUACACUCGGUCUG [Fam1A.1 aminoacylation ribozyme variant] | 0.639 | 0.629 | 0.891 | 0.74 | 1.04 | 0.757
34 | CUACUUCAUACAUUCGGUCUG [Fam1A.1 aminoacylation ribozyme variant] | 1.04 | 0.96 | 0.965 | 0.894 | 0.955 | 1.05
35 | CUACUUCAUACUAUCGGUCUG [Fam1A.1 aminoacylation ribozyme variant] | 0.791 | 0.667 | 0.937 | 0.741 | 0.862 | 1.05
36 | CUACUUCCAACAAUCGGUCAG [Fam1A.1 aminoacylation ribozyme variant] | 0.663 | 0.518 | 0.774 | 0.62 | 0.795 | 1.04
37 | CUACUUCCAACAAUCGUUCUG [Fam1A.1 aminoacylation ribozyme variant] | 0.47 | 0.36 | 0.705 | 0.547 | 0.566 | 0.778
38 | CUACUUCCCACAAUCGGUCUG [Fam1A.1 aminoacylation ribozyme variant] | 0.992 | 1.04 | 0.888 | 0.846 | 0.867 | 0.493
39 | CUACUUCCGACAAUCGGUCUG [Fam1A.1 aminoacylation ribozyme variant] | 0.805 | 0.568 | 1.13 | 1.06 | 0.846 | 1.7
40 | CUACUUCGAACAACCGGUCUG [Fam1A.1 aminoacylation ribozyme variant] | 0.836 | 0.949 | 1.21 | 0.734 | 0.822 | 0.394
41 | CUACUUCGAACAAUGGGUCUG [Fam1A.1 aminoacylation ribozyme variant] | 0.674 | 0.39 | 0.759 | 0.624 | 0.778 | 0.322
42 | CUACUUCGAACAAUUGGUCUG [Fam1A.1 aminoacylation ribozyme variant] | 0.566 | 0.27 | 0.617 | 0.744 | 0.599 | 0.291
43 | CUACUUCUAACAACCGGUCUG [Fam1A.1 aminoacylation ribozyme variant] | 0.703 | 0.625 | 0.812 | 0.802 | 0.776 | 0.761
44 | CUACUUCUAACACUCGGUCUG [Fam1A.1 aminoacylation ribozyme variant] | 0.835 | 0.499 | 0.855 | 0.765 | 0.762 | 0.73
45 | CUACUUUAAACAAUCGCUCUG [Fam1A.1 aminoacylation ribozyme variant] | 0.457 | 0.441 | 0.668 | 0.611 | 0.628 | 0.46
46 | CUACUUUAAACAAUCGGUCCG [Fam1A.1 aminoacylation ribozyme variant] | 0.861 | 1.46 | 0.936 | 1.04 | 0.878 | 0.755
47 | CUACUUUAAACAAUUGGUCUG [Fam1A.1 aminoacylation ribozyme variant] | 0.919 | 0.926 | 0.963 | 0.961 | 0.984 | 0.795
48 | CUACUUUAAACACUCGGUCUG [Fam1A.1 aminoacylation ribozyme variant] | 0.792 | 0.531 | 0.776 | 0.933 | 0.904 | 0.579
49 | CUACUUUAAACAUUCGGUCUG [Fam1A.1 aminoacylation ribozyme variant] | 1.07 | 1.09 | 1.15 | 1.09 | 1.11 | 0.818
50 | CUAGUUCAAGCAAUCGGUCUG [Fam1A.1 aminoacylation ribozyme variant] | 1.11 | 1.45 | 0.854 | 0.933 | 1.04 | 1.66
51 | CUAGUUCCAACAAUCGGUCUG [Fam1A.1 aminoacylation ribozyme variant] | 1.25 | 9.72 | 1.08 | 0.877 | 1.06 | 9.79

From the supplement of paper PMC9233669
